This assay has as its target CAP1, endogenous in THP-1 monocytes (human (endogenous in THP-1)) (UniProt Q01518). Put plainly: co-IP; immunoprecipitation of endogenous proteins from THP-1 lysates (CAP1 and PCSK9 antibodies; CAP1, Syk and PKCδ), immunoblot.

Sequences of proteins named here, by UniProt entry; tags and fusion partners are left off. A change or cut given only in a name is not applied to a line headed by its entry.
UniProt Q01518: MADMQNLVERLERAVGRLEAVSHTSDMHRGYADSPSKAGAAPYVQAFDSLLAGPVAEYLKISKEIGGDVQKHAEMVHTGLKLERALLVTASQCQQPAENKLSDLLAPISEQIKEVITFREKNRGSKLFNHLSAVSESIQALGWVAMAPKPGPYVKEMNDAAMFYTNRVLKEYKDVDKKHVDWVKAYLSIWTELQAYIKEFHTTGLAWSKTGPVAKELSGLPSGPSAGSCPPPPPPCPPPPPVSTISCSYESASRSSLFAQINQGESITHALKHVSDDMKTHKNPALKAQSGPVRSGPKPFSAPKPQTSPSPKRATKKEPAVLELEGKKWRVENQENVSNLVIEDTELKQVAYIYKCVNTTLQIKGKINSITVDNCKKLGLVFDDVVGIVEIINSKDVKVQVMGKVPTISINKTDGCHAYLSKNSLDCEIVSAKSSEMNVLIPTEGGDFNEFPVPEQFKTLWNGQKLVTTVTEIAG
UniProt Q05655: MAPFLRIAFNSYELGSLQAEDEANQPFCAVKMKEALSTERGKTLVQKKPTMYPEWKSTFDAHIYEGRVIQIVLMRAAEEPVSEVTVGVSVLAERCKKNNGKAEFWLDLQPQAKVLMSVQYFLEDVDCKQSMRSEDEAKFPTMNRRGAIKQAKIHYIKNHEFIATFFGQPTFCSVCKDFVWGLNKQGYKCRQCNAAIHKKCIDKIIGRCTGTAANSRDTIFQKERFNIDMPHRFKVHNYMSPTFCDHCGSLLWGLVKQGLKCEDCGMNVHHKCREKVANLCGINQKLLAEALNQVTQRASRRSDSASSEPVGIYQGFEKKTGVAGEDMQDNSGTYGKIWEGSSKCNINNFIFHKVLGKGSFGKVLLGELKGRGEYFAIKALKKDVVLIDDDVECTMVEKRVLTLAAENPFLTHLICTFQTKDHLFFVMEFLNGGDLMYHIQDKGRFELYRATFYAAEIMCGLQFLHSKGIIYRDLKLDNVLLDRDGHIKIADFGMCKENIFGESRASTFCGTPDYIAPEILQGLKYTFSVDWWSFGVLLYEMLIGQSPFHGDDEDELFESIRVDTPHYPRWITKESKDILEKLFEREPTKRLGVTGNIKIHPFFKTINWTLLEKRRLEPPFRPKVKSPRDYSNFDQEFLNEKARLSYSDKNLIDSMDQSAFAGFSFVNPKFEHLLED

Results are given in words; binding and its absence hold for the method and conditions named. In cells and extracts the contact can be indirect. Some entries that bind do so weakly or less than the wild type.

“PKCδ, endogenous in THP-1 monocytes (from UniProt Q05655 1-676) (enzyme)”: the binding result is listed as “binds”.

Source of the values: PMC10981688.
